Results of single-concentration screens

By UniProt entry, the sequences of proteins in these tests, tags left out.
UniProt P9WPC5, whole entry: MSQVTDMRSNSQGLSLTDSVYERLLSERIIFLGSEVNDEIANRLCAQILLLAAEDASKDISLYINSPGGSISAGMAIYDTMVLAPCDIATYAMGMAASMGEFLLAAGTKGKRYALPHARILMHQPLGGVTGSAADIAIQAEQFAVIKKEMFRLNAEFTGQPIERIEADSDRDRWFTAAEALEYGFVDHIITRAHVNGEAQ
UniProt P9WPC3, whole entry partner: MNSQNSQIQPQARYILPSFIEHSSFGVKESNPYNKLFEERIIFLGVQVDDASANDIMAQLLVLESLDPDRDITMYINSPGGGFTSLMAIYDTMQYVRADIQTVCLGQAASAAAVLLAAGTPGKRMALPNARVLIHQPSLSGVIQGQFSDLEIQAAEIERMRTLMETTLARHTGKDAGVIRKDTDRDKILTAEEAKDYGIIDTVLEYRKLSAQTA
UniProt I6X8D2, whole entry: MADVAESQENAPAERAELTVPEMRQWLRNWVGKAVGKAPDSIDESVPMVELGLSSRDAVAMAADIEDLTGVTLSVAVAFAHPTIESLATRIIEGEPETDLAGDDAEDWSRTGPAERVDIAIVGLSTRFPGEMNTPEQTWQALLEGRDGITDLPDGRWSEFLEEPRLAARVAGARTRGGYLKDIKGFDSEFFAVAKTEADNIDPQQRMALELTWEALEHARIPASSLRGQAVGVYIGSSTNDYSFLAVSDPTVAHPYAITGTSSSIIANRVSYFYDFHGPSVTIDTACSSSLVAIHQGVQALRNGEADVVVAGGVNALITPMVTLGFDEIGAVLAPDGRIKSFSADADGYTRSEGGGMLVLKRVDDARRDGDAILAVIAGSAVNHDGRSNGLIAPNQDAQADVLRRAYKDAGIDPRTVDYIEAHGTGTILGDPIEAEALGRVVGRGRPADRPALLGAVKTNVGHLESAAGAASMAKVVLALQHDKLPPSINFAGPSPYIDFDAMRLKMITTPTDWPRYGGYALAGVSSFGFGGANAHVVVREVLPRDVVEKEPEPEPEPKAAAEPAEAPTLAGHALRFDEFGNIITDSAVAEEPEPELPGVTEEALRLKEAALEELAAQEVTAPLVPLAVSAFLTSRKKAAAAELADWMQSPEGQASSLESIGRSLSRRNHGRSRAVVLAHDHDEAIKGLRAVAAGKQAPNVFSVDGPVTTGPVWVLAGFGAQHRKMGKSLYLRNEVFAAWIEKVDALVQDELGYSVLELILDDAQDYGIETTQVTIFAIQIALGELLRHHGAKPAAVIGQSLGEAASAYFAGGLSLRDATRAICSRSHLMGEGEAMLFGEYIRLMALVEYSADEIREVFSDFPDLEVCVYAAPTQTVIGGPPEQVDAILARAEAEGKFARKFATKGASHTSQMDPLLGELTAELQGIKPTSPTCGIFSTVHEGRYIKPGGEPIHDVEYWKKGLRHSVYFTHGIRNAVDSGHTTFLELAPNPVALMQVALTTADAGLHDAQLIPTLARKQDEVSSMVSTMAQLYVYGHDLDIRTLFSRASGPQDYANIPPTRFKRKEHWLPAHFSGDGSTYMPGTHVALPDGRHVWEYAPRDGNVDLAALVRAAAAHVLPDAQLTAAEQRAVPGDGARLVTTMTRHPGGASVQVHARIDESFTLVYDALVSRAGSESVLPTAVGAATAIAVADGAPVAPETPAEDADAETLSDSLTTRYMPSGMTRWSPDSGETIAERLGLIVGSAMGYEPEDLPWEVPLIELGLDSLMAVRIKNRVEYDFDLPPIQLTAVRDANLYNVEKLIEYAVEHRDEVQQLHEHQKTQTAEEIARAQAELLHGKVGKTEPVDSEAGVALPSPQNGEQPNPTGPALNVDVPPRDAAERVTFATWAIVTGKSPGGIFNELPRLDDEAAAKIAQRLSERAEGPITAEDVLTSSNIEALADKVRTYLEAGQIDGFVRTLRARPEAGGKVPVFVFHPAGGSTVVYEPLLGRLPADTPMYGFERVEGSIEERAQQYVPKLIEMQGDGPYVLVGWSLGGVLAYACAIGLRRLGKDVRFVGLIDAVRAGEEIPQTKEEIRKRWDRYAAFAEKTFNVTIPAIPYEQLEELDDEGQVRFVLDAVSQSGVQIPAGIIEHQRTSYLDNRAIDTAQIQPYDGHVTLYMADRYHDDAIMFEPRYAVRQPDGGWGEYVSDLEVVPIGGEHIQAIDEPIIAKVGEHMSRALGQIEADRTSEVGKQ
UniProt P9WFT3, whole entry: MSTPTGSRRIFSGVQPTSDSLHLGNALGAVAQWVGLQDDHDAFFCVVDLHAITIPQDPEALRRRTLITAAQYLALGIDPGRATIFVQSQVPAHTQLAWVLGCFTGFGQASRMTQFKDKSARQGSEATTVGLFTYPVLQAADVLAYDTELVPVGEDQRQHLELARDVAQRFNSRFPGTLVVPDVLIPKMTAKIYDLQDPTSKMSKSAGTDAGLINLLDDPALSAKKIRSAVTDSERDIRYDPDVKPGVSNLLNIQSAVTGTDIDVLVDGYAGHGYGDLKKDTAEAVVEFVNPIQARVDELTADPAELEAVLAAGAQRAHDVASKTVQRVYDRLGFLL

Each number is a percent effect as filed.
The controls that fix the scale are not given in the record; negative values are as filed.
The compounds are a random part of those screened.
A dash means the value is not listed here; it may have been measured.

ClpP1P2: 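ClpP1P2, Mycobacterium tuberculosis (UniProt P9WPC5 and UniProt P9WPC3). Protease assay of ClpP1P2, read by the AMC dye that it sets free. Concentration: 50 µM. Higher reads as stronger inhibition, judged from the few compounds that gave an IC50. Most other retested compounds had strongly negative values. Size under these conditions: about 69,000 compounds, about 10 of them at 50% or above in at least one test.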
Pks13 thioesterase: 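Polyketide synthase Pks13, Mycobacterium tuberculosis (UniProt I6X8D2). Enzyme assay of the thioesterase domain of polyketide synthase 13; the read-out is not stated. Concentration: 30 µM. Higher reads as stronger inhibition (inferred from which compounds were picked for retests). Size under these conditions: about 67,000 compounds, about 300 of them at 50% or above in at least one test.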
MtTrpRS: 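Enzyme assay of tryptophanyl-tRNA synthetase; the read-out is not stated. Target: Tryptophan-tRNA ligase, Mycobacterium tuberculosis (UniProt P9WFT3). Concentration: 10 µM. Higher most likely means stronger inhibition; the record gives no direction and few retests gave an IC50. Size under these conditions: about 65,000 compounds, about 64 of them at 50% or above in at least one test.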

SMILES	ClpP1P2	Pks13 thioesterase	MtTrpRS
O=C(c1cccc2ncccc12)N1CCCN(c2cccnn2)CC1	-4.614%	-19.88%	-1.546%
CCc1nc(C2CCCN(C(=O)CCn3ccccc3=O)C2)no1 (stereo not shown)	12.31%	-4.415%	-4.56%
COc1ccc(OC)c(NC(=O)c2nc3ccccc3n(C)c2=O)c1	-6.883%	-11.09%	-1.433%
Cc1ncc(CNCCO)c2cc(C(=O)c3ccc(Br)cc3)oc12	-0.06891%	-1.683%	2.846%
Cc1cn[nH]c1C1COCCN1C(=O)c1ccc2[nH]nnc2c1 (stereo not shown)	-16.3%	-67.89%	-5.908%
O=C1COC2(CCN(Cc3ccoc3)CC2)CN1CCn1cccn1	14.02%	-33%	-5.712%
O=S(=O)(c1ccccc1F)N1CCC(Oc2cccnn2)CC1	-3.972%	-0.5799%	0.000007%
Cc1ncsc1CN1C[C@@H]2COC[C@]2(C(=O)NCC2CC2)C1	-3.342%	-27.33%	0.8811%
COc1ccc(CCN2CC(c3nc(CSC)no3)CCC2=O)cc1 (stereo not shown)	-0.6061%	-28.74%	-0.7276%
O=C(NCc1cc[nH]n1)NC1CCCN(c2ncccn2)C1 (stereo not shown)	-11.03%	-15.27%	-2.86%
CN(CCn1cnnc1)C(=O)c1ccnc(OC2CCC2)c1	-9.526%	-18.09%	0.6173%
Cc1cccc(C(=O)N2CCCCC2c2nc3cc(F)ccc3[nH]2)n1 (stereo not shown)	-23.36%	-15.61%	1.91%
COCCCN(C)S(=O)(=O)c1ccc(C(F)(F)F)cc1C#N	-1.709%	-41.42%	0.343%
Fc1ccc(OCCCNC2=NCCCN2)cc1	2.372%	-9.389%	1.665%
CCOC(=O)CNC(=O)NCc1cccn1Cc1ccccc1C	-19.96%	-7.522%	1.295%
COc1ccc(COCC(O)CNC(=O)c2cc(C)oc2C)cc1 (stereo not shown)	-10.3%	-9.083%	6.39%
O=C(CCN1CCc2ccccc21)N1C[C@@H](O)[C@H](N2CCOCC2)C1	2.783%	-3.676%	-4.863%
CS(=O)(=O)N[C@@H]1CCO[C@]2(CCN(C(=O)C3=CCCC3)C2)C1	3.669%	-21.38%	-0.6103%
CC(C)c1nn(C)cc1CNC1CCOc2ccccc21 (stereo not shown)	-14.29%	-5.98%	-6.553%
CCN(CC)Cc1cc(C(=O)N2CCCC(O)(CO)C2)c(C)o1 (stereo not shown)	-6.162%	-28.54%	-3.199%
CC(C)c1ncc2c(n1)CN(Cc1nc(-c3cccs3)no1)CC2	-6.368%	3.085%	-2.43%
CC(NC(=O)N(C)Cc1ccsc1)c1ccc2c(c1)NC(=O)CO2 (stereo not shown)	8.561%	-9.567%	-2.516%
Cc1ccc(NC2CCN(C(=O)CN(C)C3CC3)CC2)nn1	3.639%	-8.451%	0.4873%
CNC(=O)N1CCC2(CC1)CNc1ccc(F)cc12	-0.1447%	-1.311%	1.904%
O=C(Nc1ccccc1Cn1cccn1)N1CCC(N2CCCC2)C1 (stereo not shown)	-2.45%	-24.57%	-2.993%
Cc1nn(C)c(N(C)C)c1CNCc1cccc(CN(C)C)c1	2.933%	-32.16%	0.9675%
c1cnnc(N2CCCC2CNc2ncnc3ccccc23)c1 (stereo not shown)	-3.731%	-13.87%	-1.852%
CCCN1CC[C@@H]2OC[C@H](C(=O)Nc3cccnc3)C[C@@H]2C1	-15.65%	-17.07%	1.862%
Nc1nc2c(c(NCc3cnc4c(c3)CCC4)n1)CCNC2	-17.6%	-16.08%	4.129%
Cc1ccc(C)c(CC(=O)NC2(C#N)CCOCC2)c1	1.663%	-16.08%	0.2154%
CC1CCN(CC(O)CNc2ccccn2)CC1 (stereo not shown)	-2.717%	-16.14%	1.04%
CC(C)CC(NC(=O)CN(C)C(=O)c1ccco1)c1cccs1 (stereo not shown)	0.9128%	-36.21%	-3.179%
CCOc1ccccc1OC1CCN(C(=O)c2[nH]nc(C)c2Br)CC1	-10.82%	-4.851%	-6.198%
CO[C@@H]1CC[C@H]2[C@H]1OCCN2CCOCc1ccccc1	-6.137%	-5.994%	-7.441%
O=C(CN1CCC(c2nnc(C(F)(F)F)o2)CC1)NCc1ccccc1	-3.072%	-6.046%	1.162%
Cc1noc(NC(=O)c2ccc(OC(F)(F)F)cc2)n1	-1.152%	3.787%	2.437%
CC(C(=O)NCc1ccc2c(c1)OCCO2)n1cncn1 (stereo not shown)	7.499%	-12.07%	1.665%
Cc1nnc([C@@H]2CCO[C@@H]3CCN(C(=O)Cc4ccccn4)C[C@@H]32)o1	4.957%	-	4.869%
COc1ccc(COCC(O)CSc2ccc(NC(C)=O)cc2)cc1 (stereo not shown)	-0.4532%	28.17%	1.573%
N[C@H]1CN(C(=O)c2ccc(Cl)cc2O)C[C@@H]1C1CC1	0.08509%	-5.456%	-1.722%
Cc1ccc(CN2C[C@@H]3COC[C@@H](CC(=O)N4CCOCC4)[C@@H]3C2)s1	-0.05353%	-2.596%	3.458%
CCCS(=O)(=O)N1CCC2(CC(=O)N(c3cnn(C)c3)C2)C1 (stereo not shown)	-3.819%	-44.67%	-1.58%
Cc1nc(C2CCCN(C(=O)CCCn3cccn3)C2)sc1C (stereo not shown)	-7.159%	-9.652%	-6.671%
Cc1nc(N2CCCC2)nc2c1CCN(Cc1nccn1C)CC2	1.476%	39.56%	-
CC(C)CN1CCn2c(nc3cc(C(=O)NC(C)C)ccc32)C1	-2.869%	-1.961%	-2.679%
COCCN1C(=O)[C@H]2CC[C@@H]1CN(Cc1nnc(-c3ccccc3)o1)C2	14.51%	0.8895%	6.167%
CN1CCN(Cc2cn3c(n2)CN(C2CCOCC2)CC3)CC1	4.716%	12.14%	-
O=C1CCCCCN1CCc1nc(-c2cccnn2)no1	-5.27%	-4.393%	3.377%
Cc1ccc(CNC(=O)CC2C(=O)NCCN2Cc2ccccc2C)s1 (stereo not shown)	-4.426%	-42.45%	1.312%
Cc1nn(C)c(N(C)C)c1CNCc1ccnc(N2CCCC2)c1	1.752%	-21.36%	-3.834%
CCCN(C(=O)c1ocnc1C)C1CCCN(Cc2ccccc2)C1 (stereo not shown)	-4.94%	-32.66%	3.428%
O=C(NCCN1CCCCC1)c1nc(-c2cccc3[nH]ccc23)no1	-10.49%	-24.02%	1.611%
O=C(NCc1ccco1)[C@H]1C[C@@H]2CCN(c3ncccn3)C[C@H]2O1	-28.72%	-8.451%	-4.344%
CCc1ccc(NC(=O)N2C[C@H]3C[C@H](C(=O)NC4CCC4)[C@@H](C2)O3)cc1	12.7%	-38.85%	-
Cc1ccc2c(c1)C(=O)NCC1(CCN(Cc3ccccc3)CC1)O2	-6.276%	-26.54%	-
CC(C)n1ccnc1C1CCN(C(=O)c2ccccc2N(C)C)CC1	9.125%	-	-1.667%
CCn1ccnc1CN(C)Cc1nc(CCC(C)C)no1	-7.824%	11.28%	-3.016%
FC(F)c1nnc2ccc(N3CCC4(CCOC4)C3)nn12 (stereo not shown)	-6.478%	-	1.283%
O=C(C1CC(c2cccc(F)c2)=NO1)N1CCc2ccccc21 (stereo not shown)	12.18%	-15.76%	-1.769%
O=S(=O)(CCC1CCCO1)NCc1ncc(-c2ccccc2)o1 (stereo not shown)	5.833%	-	-7.869%
Cc1cc(S(=O)(=O)N2CCC(S(C)(=O)=O)C2)ccc1F (stereo not shown)	-0.0774%	6.116%	-1.467%
Cn1[nH]c(C2CC2)c(-c2ccc3c(c2)OCO3)c1=N	-12.46%	-12.55%	1.967%
Cc1nc(C(=O)NCc2ccccn2)cc(C2CCCN2)n1 (stereo not shown)	2.184%	-6.441%	13.04%
CC(=O)N1CCC2(CC1)C(=O)N(c1cccnc1)c1ccc(F)cc12	1.193%	-33.2%	-5.007%
CC1CN(C(=O)NCc2ccn(C)c2)CCN1CC(F)(F)F (stereo not shown)	-11.72%	-16.4%	0.2349%
O=C(NC1CCCN(CCCc2ccccc2)C1)C1=CCCCC1 (stereo not shown)	-5.463%	0.3093%	-3.668%
Cc1cc(C(=O)N2CC[C@]3(C[C@@H](OCc4ccccn4)CO3)C2)c(C)o1	17%	-26.5%	6.88%
O=C(N1CCOCC1)N1CCOC[C@H](Oc2ccc(C(F)(F)F)cc2)C1	-5.679%	-22.29%	-1.745%
CCCN(CCS(C)(=O)=O)C1CCc2ccccc2C1 (stereo not shown)	-7.164%	-	-1.365%
Cc1nc(C)c(CC(=O)N2C[C@@H](C(=O)O)[C@H](c3ccccc3C)C2)s1	-0.7409%	-34.57%	-2.804%
Cn1c(N)nnc1SCC1OCCc2ccccc21 (stereo not shown)	1.814%	-4.784%	-4.046%
Cc1n[nH]c(CN2CCN(c3ncnc4scc(C)c34)CC2)c1Cl	-13.68%	-12.73%	1.037%

Some entries from above, unchanged:

SMILES	ClpP1P2	Pks13 thioesterase	MtTrpRS
Cc1ccc(CN2C[C@@H]3COC[C@@H](CC(=O)N4CCOCC4)[C@@H]3C2)s1	-0.05353%	-2.596%	3.458%
CC(C(=O)NCc1ccc2c(c1)OCCO2)n1cncn1 (stereo not shown)	7.499%	-12.07%	1.665%
CC(=O)N1CCC2(CC1)C(=O)N(c1cccnc1)c1ccc(F)cc12	1.193%	-33.2%	-5.007%
CC(C)n1ccnc1C1CCN(C(=O)c2ccccc2N(C)C)CC1	9.125%	-	-1.667%
CCCN1CC[C@@H]2OC[C@H](C(=O)Nc3cccnc3)C[C@@H]2C1	-15.65%	-17.07%	1.862%
CCn1ccnc1CN(C)Cc1nc(CCC(C)C)no1	-7.824%	11.28%	-3.016%
CN(CCn1cnnc1)C(=O)c1ccnc(OC2CCC2)c1	-9.526%	-18.09%	0.6173%
CNC(=O)N1CCC2(CC1)CNc1ccc(F)cc12	-0.1447%	-1.311%	1.904%
O=C(NCc1cc[nH]n1)NC1CCCN(c2ncccn2)C1 (stereo not shown)	-11.03%	-15.27%	-2.86%

Data taken from ChEMBL document CHEMBL3988442, “University of Dundee, Small-Polar-MMV Screening Library” (2021).